According to PubChem BioAssay AID540256 (National Center for Advancing Translational Sciences (NCATS), 2011):
The whole screen tested about 300,000 compounds, of which about 3,700 (1.2%) were called active. The inconclusive results got no clear call from the source; some entries with a clear call stand among them for comparison. Calls come from the whole dose curve; tested in HEK293 cells. Where the call is inconclusive, the potency comes from a doubtful curve fit.

Test: qHTS for Inhibitors of binding or entry into cells for Lassa Virus; note: nearly all actives have a fitted effect of over 50% in size
Settings: Lassa virus pseudotype entry inhibition, cell reporter; series mostly up to 37.9 µM
Potency is the fitted concentration of half-maximal effect.

Row | Compound | Potency
1 | CCOc1nc(N2CCOCC2)nc(C)c1[N+](=O)[O-] | inconclusive: 1.64 µM [inhibitor, partial curve, poor fit]
2 | CCOCCCNC(=O)c1c(NC(=O)c2cc(=O)c3ccccc3o2)sc2c1CCC2 | inconclusive: 17.8 µM [activator, single point]
3 | CCN(CCNC(=O)c1ccc(CSc2nc3ccncc3[nH]2)cc1)c1ccccc1 | inconclusive: 20.6 µM [inhibitor, single point]
4 | CCOc1ccc(CNC(=O)c2ccc3c(c2)nnn3C2CCCC2)cc1 | inconclusive: 7.08 µM [activator, partial curve]
5 | Cc1cccc(Cn2c(=O)n(Cc3ccc4c(c3)OCO4)c(=O)c3oc4ccccc4c32)c1 | inactive
6 | CCOC(=O)CNC(=O)CSc1ncccc1-c1nc2ccccc2[nH]1 | inconclusive: 35.5 µM [activator, single point]
7 | Cc1ccc(S(=O)(=O)C(CNC(=O)Cc2ccc(Cl)cc2)c2cccs2)cc1 (configuration not stated) | inconclusive: 22.4 µM [inhibitor, single point]
8 | CCc1ccc2oc(-c3ccc(N)cc3)nc2c1 | inconclusive: 16.4 µM [inhibitor, single point]
9 | N#Cc1nc(COc2cccc(Cl)c2)oc1NCCN1CCOCC1 | inconclusive: 2 µM [inhibitor, partial curve, poor fit]
10 | Cc1cccc(NS(=O)(=O)c2ccc(C(=O)NCC3(N4CCCCC4)CCCCC3)cc2)c1C | inconclusive: 15.8 µM [inhibitor, single point]
11 | Cc1cc(C)c2nc(/N=C(\N)NC(=O)c3ccccc3)nc(C)c2c1 | inactive
12 | Cc1cccc(Nc2nc(NCc3ccco3)nc(N)c2[N+](=O)[O-])c1 | inconclusive: 15.8 µM [inhibitor, single point]
13 | Cc1cc(C)n(-c2ccc(C(=O)Nc3cc(S(=O)(=O)N(C)C)ccc3Cl)cc2)n1 | inconclusive: 20 µM [inhibitor, partial curve, poor fit]
14 | Cc1ccc(OCC(=O)OC(C)CN(C)Cc2ccccc2)cc1 (configuration not stated) | inconclusive: 1.78 µM [inhibitor, partial curve, poor fit]
15 | CCOC(=O)c1c(C)oc2ncnc(Nc3cc(Cl)ccc3OC)c12 | inconclusive: 1.12 µM [activator, partial curve, poor fit]
16 | O=C(CCCN1C(=O)/C(=C\c2ccccc2)SC1=S)Nc1ccc(O)cc1 | inconclusive: 4.47 µM [inhibitor, partial curve, poor fit]
17 | O=C(Nc1cccc(S(=O)(=O)Nc2ccccc2F)c1)c1ccco1 | inconclusive: 11.2 µM [inhibitor, partial curve, poor fit]
18 | O=C(CN1CCN(S(=O)(=O)c2ccccc2)CC1)Nc1ccccc1C(=O)c1ccccc1 | inconclusive: 22.4 µM [inhibitor, single point]
19 | Cc1ccc(C(C)C)cc1OCC(=O)Nc1ccc(-n2cnnn2)cc1 | inactive
20 | Cc1ccc(-n2c(C)c(C)c3c(NCCCO)ncnc32)cc1 | inconclusive: 12.6 µM [inhibitor, partial curve]
21 | COc1ccc(F)c(CN(C)CC2CCCN(CCc3ccc(F)cc3)C2)c1 (configuration not stated) | inconclusive: 35.5 µM [inhibitor, single point]
22 | Cn1c(=O)c(NC2CCCCC2)c2c3c(cccc31)C(=O)c1ccccc1-2 | inconclusive: 35.5 µM [inhibitor, single point]
23 | Cc1cccc(NC(=O)C2CCN(C(=O)NC3CCCCC3)CC2)c1 | inconclusive: 1 µM [inhibitor, single point]

Row | Compound | Potency
24 | CCOC(=O)n1c(=O)n(Cc2ccc(OC)cc2)c2ccccc21 | inconclusive: 1.12 µM [inhibitor, full curve, poor fit]
25 | COc1cccc(C(=O)N/N=C(\CC(C)C)c2ccccc2)c1 | inconclusive: 29.1 µM [inhibitor, single point]
26 | Cc1c(C(=O)Nc2ccccc2)cnn1-c1ccccc1 | inconclusive: 8.91 µM [inhibitor, partial curve]
27 | COc1cc(/C=N/NC(=O)c2nc(C)cc(C)n2)ccc1O | inconclusive: 11.2 µM [activator, single point]
28 | CCOc1ccccc1NC(=O)CN1C(=O)COc2ccc(S(=O)(=O)N3CCCCC3)cc21 | inactive
29 | O=C(CSc1nc2ccccc2[nH]1)Nc1ccc2c(c1)OCCO2 | inactive
30 | CN(C)c1ccc(C(=O)Nc2cccc(-c3nc4cccnc4s3)c2)cc1 | inconclusive: 7.94 µM [inhibitor, partial curve]
31 | CCN(CC)S(=O)(=O)c1ccc(NC(=S)NC(=O)CC(C)C)cc1 | inconclusive: 16.4 µM [inhibitor, single point]
32 | Cc1cc(O)c(-c2cc(C(=O)Nc3ccc(S(=O)(=O)N4CCOCC4)cc3)[nH]n2)cc1C | inconclusive: 18.3 µM [inhibitor, single point]
33 | CCCCn1ccnc1C(=O)c1ccc(S(=O)(=O)N(CCOC)CCOC)cc1 | inactive
34 | CC(=O)NC(c1ccccc1)c1nc2ccccc2[nH]1 (configuration not stated) | inactive
35 | CC(C)(C)c1ccc(OC(=O)CN2C(=O)C3C4CCC(C4)C3C2=O)cc1 (configuration not stated) | inactive
36 | CCCCC(O)(CCCC)C(=O)NN(C(=O)CCl)c1ccccc1 | inconclusive: 17.8 µM [inhibitor, single point]
37 | Cn1c(-[n+]2c(-c3ccccc3)cc(-c3ccccc3)cc2-c2ccccc2)nc2c([N+](=O)[O-])cccc21 | inconclusive: 35.5 µM [inhibitor, partial curve, poor fit]
38 | O[C@@H]1COC(Nc2ccc(N=Nc3ccccc3)cc2)C[C@@H]1O (some centres not stated) | inactive
39 | COc1cc(C(=S)N2CCN(c3cccc(Cl)c3)CC2)ccc1O | inconclusive: 2.51 µM [inhibitor, full curve, poor fit]
40 | CC1=NC(=O)C(N=Nc2cccc(O)c2)N1c1ccccc1 (configuration not stated) | inactive
41 | Cc1ccc(OCC(=O)N/N=C\c2ccc(-c3cccc(C(=O)O)c3)o2)c(C)c1 | inactive
42 | O=C1CN(c2ccccc2F)C(=O)CN1c1ccccc1F | inconclusive: 29.1 µM [inhibitor, partial curve, poor fit]
43 | Cn1c(CN2CCOCC2)nnc1SCC(N)=O | inconclusive: 1.26 µM [activator, partial curve]
44 | CCCOc1ccccc1NS(=O)(=O)c1ccc2[nH]c(=O)[nH]c2c1 | inconclusive: 4.47 µM [inhibitor, single point]
45 | COc1ccc(C(=O)CN(Cc2ccccc2)C2=NCCS2)cc1 | inactive
46 | Cc1cc(C(=O)Nc2cccc(F)c2)c2c(C)nn(-c3cccc(Cl)c3C)c2n1 | inconclusive: 3.55 µM [inhibitor, full curve, poor fit]

Gathered by group: those above with a halogen.
Row | Compound | Potency
7 | Cc1ccc(S(=O)(=O)C(CNC(=O)Cc2ccc(Cl)cc2)c2cccs2)cc1 (configuration not stated) | inconclusive: 22.4 µM [inhibitor, single point]
9 | N#Cc1nc(COc2cccc(Cl)c2)oc1NCCN1CCOCC1 | inconclusive: 2 µM [inhibitor, partial curve, poor fit]
13 | Cc1cc(C)n(-c2ccc(C(=O)Nc3cc(S(=O)(=O)N(C)C)ccc3Cl)cc2)n1 | inconclusive: 20 µM [inhibitor, partial curve, poor fit]
15 | CCOC(=O)c1c(C)oc2ncnc(Nc3cc(Cl)ccc3OC)c12 | inconclusive: 1.12 µM [activator, partial curve, poor fit]
17 | O=C(Nc1cccc(S(=O)(=O)Nc2ccccc2F)c1)c1ccco1 | inconclusive: 11.2 µM [inhibitor, partial curve, poor fit]
21 | COc1ccc(F)c(CN(C)CC2CCCN(CCc3ccc(F)cc3)C2)c1 (configuration not stated) | inconclusive: 35.5 µM [inhibitor, single point]
36 | CCCCC(O)(CCCC)C(=O)NN(C(=O)CCl)c1ccccc1 | inconclusive: 17.8 µM [inhibitor, single point]
39 | COc1cc(C(=S)N2CCN(c3cccc(Cl)c3)CC2)ccc1O | inconclusive: 2.51 µM [inhibitor, full curve, poor fit]
42 | O=C1CN(c2ccccc2F)C(=O)CN1c1ccccc1F | inconclusive: 29.1 µM [inhibitor, partial curve, poor fit]
46 | Cc1cc(C(=O)Nc2cccc(F)c2)c2c(C)nn(-c3cccc(Cl)c3C)c2n1 | inconclusive: 3.55 µM [inhibitor, full curve, poor fit]

More structures follow.

Row | Compound | Potency
47 | COc1cc(-c2cc(C(=O)Nc3cc(S(=O)(=O)N4CCOCC4)ccc3C)c3ccccc3n2)cc(OC)c1OC | inconclusive: 20 µM [inhibitor, partial curve, poor fit]
48 | CCCCNC(=O)/C(C#N)=C/c1ccc(-c2ccc(S(=O)(=O)N3CCOCC3)cc2)o1 | inconclusive: 6.51 µM [inhibitor, partial curve, poor fit]
49 | Cc1cc(C)n(CCC(=O)N/N=C/c2ccccc2O)n1 | inconclusive: 10 µM [inhibitor, single point]
50 | COc1ccc(NC(=O)c2cccnc2Cl)c(S(=O)(=O)N2CCOCC2)c1 | inactive
51 | Cc1ccc(CCNC(=O)c2ccc(CNS(=O)(=O)c3ccccc3)cc2)cc1 | inconclusive: 3.55 µM [inhibitor, single point]
52 | Cc1ccc(NCc2ccccc2O)c(C)c1 | inactive
53 | CCc1ccc(-n2nc(C)c3c(C(=O)Nc4cc(C)c(Cl)cc4OC)cc(C)nc32)cc1 | inactive
54 | COc1ccc2[nH]c(C)c(CCNC(=S)Nc3ccccc3C)c2c1 | inconclusive: 4.11 µM [inhibitor, full curve, poor fit]
55 | CCCN(C(=O)COc1cc(=O)n(CC)c2ccccc12)c1ccc(C(C)C)cc1 | inactive
56 | CCOC(=O)N1CCN(C(=O)c2ccc3oc(CCCc4ccccc4)nc3c2)CC1 | inconclusive: 31.6 µM [inhibitor, single point]
57 | CCc1ccc(-n2c(SCc3ccccc3C)nc3[nH]ncc3c2=O)cc1 | inactive
58 | Cc1ncoc1C(=O)NC1CC(C)(C)Cc2c1cnn2-c1ccccc1 (configuration not stated) | inconclusive: 0.562 µM [activator, single point]
59 | Cc1c(C(=O)N2CCCC2)sc(NC(=O)c2cccs2)c1C#N | inactive
60 | O=C(C1CCN(C2CCN(Cc3ccsc3)CC2)CC1)N1CCOCC1 | inactive
61 | CC(C)(C)C(=O)Nc1nnc(SCC(=O)Nc2ccc3c(c2)OCO3)s1 | inconclusive: 12.6 µM [activator, single point]
62 | CCN(C(=O)c1cc2ccccc2oc1=O)c1cccc(C)c1 | inconclusive: 0.0103 µM [activator, full curve, poor fit]
63 | Cc1cccc(-n2c(Cc3ccccc3)nnc2SCc2ccc([N+](=O)[O-])cc2)c1 | inconclusive: 31.6 µM [inhibitor, single point]
64 | O=C(COc1ccc(C(=S)N2CCCC2)cc1)Nc1ccccc1C(F)(F)F | inconclusive: 17.8 µM [inhibitor, single point]
65 | CCc1c(C)c2ccc(O)c(CN3CCN(c4ccc(OC)cc4)CC3)c2oc1=O | inactive
66 | COc1cccc(Cn2c(SCC(=O)N(C)c3ccccc3)nc3ccccc32)c1 | inconclusive: 7.94 µM [inhibitor, partial curve, poor fit]
67 | S=C(NCCc1ccccc1)Nc1ccccc1 | inconclusive: 31.6 µM [inhibitor, single point]
